# Laboratory results taken from patent US9233107B2, “Compositions and methods for the treatment of progressive multifocal leukoencephalopathy (PML)” (Biogen MA Inc., priority 2007, dated 2016).
# For at least one compound, name, drawing or mass did not settle the structure.
# Test system: JCV
# Assay: Anti-JCV activity of structural analogs (Tables 4 and 5)
# Format: cell-based, JC polyomavirus (JCV)
# Details: Table 4, mefloquine functional fingerprint in silico screen compounds
structure (smiles),measurement,value
CC(C)C(=O)c1c(C(C)C)nn2ccccc12 [IBUDILAST],anti-JCV activity,No
